Data on 60 compounds can be found in PubChem BioAssay AID2685 (National Center for Advancing Translational Sciences (NCATS), 2010).

The experiment can be described thus: qHTS Assay for Lipid Storage Modulators in Drosophila S3 Cells.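 On cell number change: cells counted by Cell Tracker Red CMTPX staining in the red channel.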 The settings on record: BODIPY lipid droplet fluorescence, 18-24 h; for cell number change: measured here: cell count max response, cells fed with added oleic acid. In outline: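 Drosophila S3 cells got compounds at several concentrations plus oleic acid (400 uM solution). Laser-scanning cytometry with 488 nm excitation read lipid droplets at 500-530 nm and cells at 575-640 nm. Percent activity was relative to 20 uM Triacsin C.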

Setting [1] is: measured here: lipid fluorescence (Fed channel) AC50, cells fed with added oleic acid.
Where [2] appears, read: measured here: cell number channel AC50, cells fed with added oleic acid.

Some of the results follow. The main result of the screen is listed elsewhere. These columns were measured beside it and carry no call. Most of these compounds were active or inconclusive in the main read-out, so they are no random draw. The note in brackets gives the kind of curve behind each potency; many fits are weak.

Take `Cc1cc(C)c2nc(NNC(=O)c3cc(=O)c4ccccc4o3)sc2c1`: the cell number change worked out at 0.393%.

For the compound `COc1ccc(N(C(=O)c2snc(C(N)=O)c2N)C(C(=O)NC2CCCC2)c2cc(OC)ccc2OC)cc1` (stereo not drawn), the cell number change is 7.5%. Besides, the AC50 under setting [1] was 0.58 µM [rising, single point].

For `Cc1ccc(CN(C)C(=O)COc2ccc(S(=O)(=O)N3CCCC3)cc2[N+](=O)[O-])c(C)c1`, the cell number change is -3.82%. Besides, the AC50 under setting [2] is 0.164 µM [falling, full curve, poor fit]. Also, the AC50 under setting [1] was 0.164 µM [falling, full curve, poor fit].

Take `CCOc1cc(/C=N/NC(=O)CCc2n[nH]c(=O)[nH]c2=O)ccc1O`: the cell number change is 32.8%. Also, the AC50 under setting [2] is 0.164 µM [rising, partial curve, poor fit]. The AC50 under setting [1] was 29.1 µM [rising, single point].

Turning to `CCOc1ccccc1OCCOCCN1CCN(Cc2ccccc2)CC1`, the cell number change is -33.6%. The AC50 under setting [2] is 18.4 µM [falling, single point].

In the case of `COc1ccc(C(=O)Nc2cc(C)nn2-c2nc3ccccc3[nH]2)c(OC)c1`, the cell number change is -24.3%. The AC50 under setting [1] is 0.58 µM [rising, full curve, poor fit].

As for `O=C(NCCc1ccc(F)cc1)Nc1ccccc1Cl`, the cell number change was 6.94%. The AC50 under setting [1] was 6.51 µM [rising, partial curve, poor fit].

On to `O=C(Cn1cc2c(n1)CCCC2)NCc1ccccn1`, for which the cell number change was -50.6%. Moreover, under setting [2], the AC50 is 25.9 µM [falling, single point]. Also, the AC50 under setting [1] was 9.2 µM [falling, partial curve].

`CCCCNC(=O)c1nn2c(C(F)(F)F)cc(-c3ccc(OC)cc3)nc2c1Br`: the cell number change was -15.1%.

In the case of `CCC(C(=O)NCc1ccc(F)cc1)n1nc(C)n2c(cc3occc32)c1=O` (stereo not drawn), the cell number change stood at 4.2%. Besides, the AC50 under setting [1] is 29.1 µM [rising, single point].

On to `CCOc1ncccc1C(=O)N(C)CC1COc2ccccc2O1` (stereo not drawn), for which the cell number change is 34.3%. For the same compound, under setting [2], the AC50 was 0.82 µM [rising, partial curve, poor fit].

For `Cc1ccccc1CN1CCNC(=O)C1CC(=O)NCCC1=CCCCC1` (stereo not drawn), the cell number change turned out to be 12.3%. The AC50 under setting [2] was 7.31 µM [rising, partial curve, poor fit].

On to `Cc1ccc(CN2CCSc3ccc(C(=O)NCc4cccnc4)cc32)cc1`, for which the cell number change is -28.3%. Moreover, the AC50 under setting [1] is 14.6 µM [falling, single point].

Regarding `O=C(Nc1ccc(F)cc1F)N1CCCN(CCOc2ccccc2)CC1`, the cell number change was 22.6%. The AC50 under setting [2] was 3.66 µM [rising, single point]. For the same compound, under setting [1], the half-maximal activity concentration (AC50) was 29.1 µM [rising, single point].

Turning to `N#Cc1c(-c2ccc3c(c2)OCO3)csc1N`, the AC50 under setting [2] is 1.84 µM [rising, partial curve] and the half-maximal activity concentration (AC50) under setting [1] is 2.31 µM [rising, partial curve].

Regarding `O=C(OCc1ccc(Br)cc1)c1cccnc1Cl`, the cell number change amounted to 14.1%.

For the compound `CCC(CC)C(=O)Nc1cccc(-c2ccc3nncn3n2)c1`, the cell number change is -10.1%.

In the case of `Cc1ccc(-c2nnc(SCc3nc(N)nc(Nc4ccccc4C)n3)n2N)cc1`, the cell number change is 34.5%. Also, under setting [2], the AC50 was 0.92 µM [rising, full curve, poor fit].

With `COCCn1c(SCc2nc(N)nc(Nc3ccccc3C)n2)nc2ccccc2c1=O`, the cell number change was 5.94%.

On to `COC(=O)CNC(=O)c1ccc(NS(=O)(=O)c2cc([N+](=O)[O-])ccc2Cl)cc1`, for which the AC50 under setting [1] was 32.6 µM [falling, single point].

In the case of `C=CCn1c(O)c(N=NC(=O)CNC(=O)c2ccncc2)c2ccccc21`, the cell number change was -3.28%. Besides, the AC50 under setting [1] is 0.58 µM [rising, single point].

On to `CC(=O)c1c(C)[nH]c(C(=O)Nc2ccc(C)c(S(=O)(=O)Nc3ccc(C)cc3C)c2)c1C`, for which the cell number change is 6.56%. Under setting [1], the AC50 is 6.51 µM [rising, partial curve].

Take `NS(=O)(=O)c1ccc(CCNC(=O)COC(=O)c2cc([N+](=O)[O-])ccc2N2CCOCC2)cc1`: the cell number change is -7.23%.

For `CC(=O)c1sc2nc(-c3cccs3)ccc2c1N`, the cell number change was 62.8%. Under setting [2], the AC50 was 0.366 µM [rising, full curve]. The AC50 under setting [1] was 1.84 µM [rising, partial curve].

In the case of `CCc1ccc(/C=C2/C(=O)N(c3ccccc3)C(=S)N2CC(=O)OC)s1`, the cell number change was -15%. Further, under setting [1], the AC50 is 32.6 µM [rising, partial curve, poor fit].

For `Cc1ccc(S(=O)(=O)NC(CC(C)C)C(=O)Nc2nccs2)cc1` (stereo not drawn), the cell number change was 31.4%. Further, the AC50 under setting [2] was 9.2 µM [rising, partial curve]. Further, the AC50 under setting [1] was 2.31 µM [falling, partial curve].

Consider `O=C(Nc1ccnn1C1CCN(C(=O)c2cccc(Cl)c2)CC1)C1CCOC1` (stereo not drawn), for which the cell number change amounted to 17%. For the same compound, the AC50 under setting [1] is 18.4 µM [rising, single point].

For the compound `CC1CCc2nc3sc4c(c3c(N)c2C1)CCCC4` (stereo not drawn), the cell number change came to 12.3%. For the same compound, under setting [1], the AC50 was 0.092 µM [rising, full curve].

On to `Cc1cc(OCC(=O)NCCc2cccc(F)c2)c2c(C)cc(=O)oc2c1`, for which the cell number change turned out to be 32.8%. Besides, under setting [2], the AC50 is 32.6 µM [rising, single point].

Regarding `COc1ccc(-c2nn(-c3ccccc3)cc2C2CC(c3cccs3)=NN2C(=O)CCCC(=O)O)cc1` (stereo not drawn), the cell number change worked out at 10.2%. Further, under setting [2], the AC50 is 0.13 µM [falling, full curve, poor fit]. Moreover, the AC50 under setting [1] was 0.58 µM [falling, single point].

For the compound `COc1cc(/C(C)=N/NC(=O)CSc2nncn2C)ccc1OCc1ccccc1Cl`, the cell number change was -1.49%. Moreover, under setting [1], the AC50 was 0.206 µM [rising, full curve].

Take `COc1ccc(N(CCC(=O)O)S(=O)(=O)c2ccc(C)cc2C)cc1`: the cell number change was -33.1%.

With `CC(C)NS(=O)(=O)c1cccc2nsnc12`, the cell number change amounted to 52.3%. Moreover, under setting [2], the AC50 was 29.1 µM [rising, single point]. Moreover, the AC50 under setting [1] was 18.4 µM [rising, single point].

Regarding `Cc1cccc(C)c1NC(=O)c1cccc2c1C(=O)N(C1CCCCC1)C2`, the cell number change worked out at 12.6%.

Turning to `O=C(N/N=C(/CC(=O)c1cccs1)C(F)(F)F)c1ccc(O)cc1`, the cell number change amounted to 48.3%. The AC50 under setting [2] was 29.1 µM [rising, single point]. Besides, the concentration at half-maximal activity (AC50) under setting [1] was 6.51 µM [rising, single point].

For the compound `Cc1ccc(C)c(OCCC(=O)OCC(=O)NCCNC(=O)COC(=O)CCOc2cc(C)ccc2C)c1`, the cell number change was -20.7%. Besides, the AC50 under setting [2] is 0.92 µM [falling, full curve]. For the same compound, under setting [1], the AC50 is 1.16 µM [falling, full curve].

With `CCOC(=O)c1c(C)[nH]c(C)c1S(=O)(=O)NCC(=O)Nc1ccccn1`, the cell number change was 4.78%. Moreover, under setting [1], the AC50 is 1.03 µM [falling, full curve, poor fit].

In the case of `O=C(Nc1cccc(S(=O)(=O)N2CCOCC2)c1)C1CCCCN1S(=O)(=O)c1ccccc1` (stereo not drawn), the cell number change is -36.4%. Further, under setting [2], the AC50 is 0.731 µM [falling, full curve, poor fit].

In the case of `COc1ccccc1-n1cnnc1SC1CCOC1=O` (stereo not drawn), the cell number change is -11.7%. Moreover, under setting [1], the AC50 was 3.66 µM [falling, single point].

In the case of `CN(C(=O)C1CCCO1)c1nnc(-c2ccccn2)s1` (stereo not drawn), the cell number change was found to be 9.93%. For the same compound, the AC50 under setting [1] was 29.1 µM [rising, single point].

Consider `OCCSc1nc2ccccc2n1CCOc1ccccc1`, for which the cell number change was -60.2%. Besides, the AC50 under setting [2] is 29.1 µM [falling, single point].

As to `COCCn1c(SCc2c(F)cccc2Cl)nc2c1c(=O)[nH]c(=O)n2C`, under setting [1], the AC50 is 0.116 µM [falling, full curve, poor fit].

For the compound `O=C(c1cc(S(=O)(=O)N2CCCCC2)ccc1N1CCOCC1)N1CCN(Cc2ccccc2)CC1`, the cell number change was determined as 24.5%. The AC50 under setting [2] is 0.00461 µM [falling, full curve, poor fit].

Take `Cc1cccc(C2=NOC(=O)/C2=C\c2ccccc2F)c1`: the cell number change was determined as 5.36%. Also, the AC50 under setting [1] is 6.51 µM [rising, single point].

With `Cc1cc(OCC(=O)Nc2ncn[nH]2)ccc1Cl`, the cell number change is -36.6%. Further, under setting [2], the AC50 was 1.46 µM [falling, partial curve]. Further, the AC50 under setting [1] was 0.92 µM [falling, partial curve].

On to `CCN(CC)S(=O)(=O)c1ccc(OC)c(-n2cnnn2)c1`, for which the cell number change was -7.67%. Besides, the AC50 under setting [1] was 29.1 µM [falling, single point].

In the case of `O=C(O)c1ccc(N=Cc2nc(-c3ccco3)oc2O)cc1`, the cell number change was -5.32%.

As for `N#Cc1cnc(Nc2nc3ccccc3o2)nc1-c1ccccc1`, the cell number change amounted to 3.75%. Moreover, the AC50 under setting [1] is 0.103 µM [falling, full curve, poor fit].

For the compound `CCCCn1c(=N)n(CC(O)COc2cccc(C)c2)c2ccccc21` (stereo not drawn), the cell number change was -70.7%. The AC50 under setting [1] is 29.1 µM [falling, single point].

Regarding `Cc1cc(N)n(-c2ccc(S(=O)(=O)c3ccc(C(C)C)cc3)cc2)n1`, the cell number change turned out to be 44.4%. Further, under setting [2], the concentration at half-maximal activity (AC50) is 25.9 µM [rising, single point].

Consider `CCS(=O)(=O)NCCc1csc(-c2ccccc2)n1`, for which the cell number change was 8.55%. The concentration at half-maximal activity (AC50) under setting [2] was 3.66 µM [rising, single point]. For the same compound, under setting [1], the AC50 was 2.31 µM [rising, partial curve].

Turning to `CCOC(=O)Nc1ccc2c(c1)N(CCCN(C)C)c1ccccc1CC2`, the cell number change was 13.3%. In addition, under setting [1], the AC50 was 29.1 µM [rising, single point].

Turning to `CCOc1ccc(C(C(=O)NCC2CCCO2)N(Cc2cccc(OC)c2)C(=O)c2snc(C(N)=O)c2N)cc1` (stereo not drawn), the cell number change came to 8.12%. Further, the AC50 under setting [1] is 0.00411 µM [rising, full curve, poor fit].

Consider `CCn1c(CNC(=O)c2cccc(C)c2)nnc1SCC(=O)Nc1nnc(C)s1`, for which the cell number change came to 8.7%.

In the case of `O=C(NCCN1CCOCC1)c1ccc(Cl)c(S(=O)(=O)N2CCCC2)c1`, the cell number change worked out at 31.9%.

For `O=C(NC1CCCCC1)c1cc(S(=O)(=O)N2CCCC2)ccc1Cl`, the cell number change is 12.8%. Besides, the AC50 under setting [1] was 2.31 µM [rising, single point].

`COc1cc(/C=N/Nc2ccc(C(F)(F)F)cn2)cc(OC)c1O`: the cell number change stood at 13.7%. For the same compound, under setting [1], the AC50 is 18.4 µM [rising, single point].

For `CC1(C)Cc2c(sc3c2c(=N)n(Cc2ccco2)c(=O)n3CC(=O)Nc2ccccc2)CO1`, the cell number change came out at 18.7%. Also, the AC50 under setting [2] is 0.461 µM [rising, full curve].

Take `CCOC(=O)CN1N=C(/C=C/c2ccc(OC)cc2)CCC1=O`: the cell number change is 17.2%.

For the compound `CN1C(=O)C(O)(CC(=O)c2cccs2)c2ccccc21` (stereo not drawn), the cell number change was 0.311%. Also, under setting [1], the AC50 is 0.082 µM [falling, full curve, poor fit].
